From publication PMC6639382, “Structural mechanism of synergistic activation of Aurora kinase B/C by phosphorylated INCENP” (Nature Communications, 2019)
No constants are given. Whether binding was seen depends on the method and setting. Some entries that bind do so weakly or less than the wild type.

The chains behind the UniProt entries cited, without tags or fusion partners. Where a name states a change or a piece, a line headed by the entry shows the natural chain unless it says otherwise. A line that says so, or that is headed by a name, gives the form on record, which may keep a tag or linker. Residues count along the entry.
Aurora kinase B kinase domain (truncation not stated), phosphorylated (Q96GD4, form named): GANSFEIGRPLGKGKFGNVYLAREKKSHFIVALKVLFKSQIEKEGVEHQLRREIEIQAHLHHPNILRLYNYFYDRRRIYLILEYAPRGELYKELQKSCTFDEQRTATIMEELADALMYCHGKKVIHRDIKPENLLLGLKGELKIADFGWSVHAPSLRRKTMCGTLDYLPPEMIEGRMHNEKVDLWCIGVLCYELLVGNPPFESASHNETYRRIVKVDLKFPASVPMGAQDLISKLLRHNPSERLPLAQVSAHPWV
INCENP IN-box (residues 835–903) S894A (Q9NQS7-1, form named): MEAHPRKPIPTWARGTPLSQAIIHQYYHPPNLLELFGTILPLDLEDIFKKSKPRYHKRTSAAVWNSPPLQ
INCENP IN-box (residues 835–903) S893A (Q9NQS7-1, form named): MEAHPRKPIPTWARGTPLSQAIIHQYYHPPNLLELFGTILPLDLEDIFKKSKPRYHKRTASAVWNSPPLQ
INCENP IN-box (residues 835–903) W897A (Q9NQS7-1, form named): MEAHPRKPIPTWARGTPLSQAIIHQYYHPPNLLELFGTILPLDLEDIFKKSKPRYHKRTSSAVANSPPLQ

What follows are substances tested against Aurora kinase B kinase domain (truncation not stated), phosphorylated (human) (UniProt Q96GD4) (assay: co-expression and co-purification; bi-cistronic co-expression in E. coli; Ni-Sepharose by the His6 tag of the Aurora kinase (INCENP untagged), TEV, second Ni-Sepharose, S75 gel filtration in 20 mM HEPES pH 7.5, 500 mM NaCl, 5% glycerol, 0.5 mM TCEP; identities confirmed by ESI-MS).

binding, binds:
INCENP IN-box (residues 835–903) S894A (from UniProt Q9NQS7-1 835-903) (domain or fragment)
INCENP IN-box (residues 835–903) S893A (from UniProt Q9NQS7-1 835-903) (domain or fragment)
INCENP IN-box (residues 835–903) W897A (from UniProt Q9NQS7-1 835-903) (domain or fragment)
